The text below walks through data of PMC9563422.

The assay addresses GST-Tip60 catalytic MYST domain. Nature of the assay: pull-down; GST, GST-Tip60 (20 uL glutathione agarose) or GST-Tip60 truncated proteins (1 ug) on beads, incubated with 5 uL in vitro translated PXR in buffer with 100 mM NaCl at 4 °C overnight; washes with 150 mM NaCl; Western blot with PXR antibody; only the target purified.

No constants are given. Whether binding was seen depends on the method and setting. Binding seen in cells or lysates may run through a third protein. Binding can be weak; no strength is given.

B1: in vitro translated PXR (receptor, UniProt O75469 1-434)
chain: MEVRPKESWNHADFVHCEDTESVPGKPSVNADEEVGGPQICRVCGDKATGYHFNVMTCEGCKGFFRRAMKRNARLRCPFRKGACEITRKTRRQCQACRLRKCLESGMKKEMIMSDEAVEERRALIKRKKSERTGTQPLGVQGLTEEQRMMIRELMDAQMKTFDTTFSHFKNFRLPGVLSSGCELPESLQAPSREEAAKWSQVRKDLCSLKVSLQLRGEDGSVWNYKPPADSGGKEIFSLLPHMADMSTYMFKGIISFAKVISYFRDLPIEDQISLLKGAAFELCQLRFNTVFNAETGTWECGRLSYCLEDTAGGFQQLLLEPMLKFHYMLKKLQLHEEEYVLMQAISLFSPDRPGVLQHRVVDQLQEQFAITLKSYIECNRPQPAHRFLFLKIMAMLTELRSINAQHTQRLLRIQDIHPFATPLMQELFGITGS
B1: the binding entry was “binds”.
